{"source": "paper PMC10332324", "note": "No constants are given. Whether binding was seen depends on the method and setting. In cells and extracts the contact can be indirect. Here binding means that the protein was enriched with, or labelled near, the bait; the list need not be complete. A no says only that the protein was not detected with the bait.", "data": [{"target": "FLAG-tagged Caper (Drosophila melanogaster)", "assay": "affinity purification with mass spectrometry; IP from adult Drosophila head lysate (neural-enriched) of flies overexpressing FLAG-Caper, with anti-FLAG M2 magnetic beads (4 h, 4 °C; control yw heads) and with a polyclonal anti-Caper antibody (control rabbit serum); LC-MS of the IPs; hits at adjusted p < 0.05 and log-fold change > 0", "values": [{"binder": "maternal expression at 31B (Me31b) (protein, UniProt P23128 1-459) MMTEKLNSGHTNLTSKGIINDLQIAGNTSDDMGWKSKLKLPPKDNRFKTTDVTDTRGNEFEEFCLKRELLMGIFEKGWERPSPIQEAAIPIALSGKDVLARAKNGTGKTGAYCIPVLEQIDPTKDYIQALVMVPTRELALQTSQICIELAKHLDIRVMVTTGGTILKDDILRIYQKVQLIIATPGRILDLMDKKVADMSHCRILVLDEADKLLSLDFQGMLDHVILKLPKDPQILLFSATFPLTVKNFMEKHLREPYEINLMEELTLKGVTQYYAFVQERQKVHCLNTLFSKLQINQSIIFCNSTQRVELLAKKITELGYCCYYIHAKMAQAHRNRVFHDFRQGLCRNLVCSDLFTRGIDVQAVNVVINFDFPRMAETYLHRIGRSGRFGHLGIAINLITYEDRFDLHRIEKELGTEIKPIPKVIDPALYVANVGASVGDTCNNSDLNNSANEEGNVSK", "binding": "binds"}, {"binder": "Argonaute 2 (AGO2) (protein, UniProt Q9VUQ5 1-1214) MGKKDKNKKGGQDSAAAPQPQQQQKQQQQRQQQPQQLQQPQQLQQPQQLQQPQQQQQQQPHQQQQQSSRQQPSTSSGGSRASGFQQGGQQQKSQDAEGWTAQKKQGKQQVQGWTKQGQQGGHQQGRQGQDGGYQQRPPGQQQGGHQQGRQGQEGGYQQRPPGQQQGGHQQGRQGQEGGYQQRPSGQQQGGHQQGRQGQEGGYQQRPPGQQQGGHQQGRQGQEGGYQQRPSGQQQGGHQQGRQGQEGGYQQRPPGQQQGGHQQGRQGQEGGYQQRPPGQQQGGHEQGRQGQEGGYQQRPSGQQQGGHQQGRQGQEGGYQQRPSGQQQGGHQQGRQGQEGGYQQRPSGQQQGGHQQGRQGQEGGYQQRPPGQQPNQTQSQGQYQSRGPPQQQQAAPLPLPPQPAGSIKRGTIGKPGQVGINYLDLDLSKMPSVAYHYDVKIMPERPKKFYRQAFEQFRVDQLGGAVLAYDGKASCYSVDKLPLNSQNPEVTVTDRNGRTLRYTIEIKETGDSTIDLKSLTTYMNDRIFDKPMRAMQCVEVVLASPCHNKAIRVGRSFFKMSDPNNRHELDDGYEALVGLYQAFMLGDRPFLNVDISHKSFPISMPMIEYLERFSLKAKINNTTNLDYSRRFLEPFLRGINVVYTPPQSFQSAPRVYRVNGLSRAPASSETFEHDGKKVTIASYFHSRNYPLKFPQLHCLNVGSSIKSILLPIELCSIEEGQALNRKDGATQVANMIKYAATSTNVRKRKIMNLLQYFQHNLDPTISRFGIRIANDFIVVSTRVLSPPQVEYHSKRFTMVKNGSWRMDGMKFLEPKPKAHKCAVLYCDPRSGRKMNYTQLNDFGNLIISQGKAVNISLDSDVTYRPFTDDERSLDTIFADLKRSQHDLAIVIIPQFRISYDTIKQKAELQHGILTQCIKQFTVERKCNNQTIGNILLKINSKLNGINHKIKDDPRLPMMKNTMYIGADVTHPSPDQREIPSVVGVAASHDPYGASYNMQYRLQRGALEEIEDMFSITLEHLRVYKEYRNAYPDHIIYYRDGVSDGQFPKIKNEELRCIKQACDKVGCKPKICCVIVVKRHHTRFFPSGDVTTSNKFNNVDPGTVVDRTIVHPNEMQFFMVSHQAIQGTAKPTRYNVIENTGNLDIDLLQQLTYNLCHMFPRCNRSVSYPAPAYLAHLVAARGRVYLTGTNRFLDLKKEYAKRTIVPEFMKKNPMYFV", "binding": "binds"}, {"binder": "Upf1 RNA helicase (Upf1) (protein, UniProt Q9VYS3 1-1180) MSVDTYAPSSALSFLDMDDNELLPGADTQPTQYDYRDFTMPSTSQSQTQNDQLEIAQRCSAGDSHPRLASITNDLADLQFEEEDDEPGSSYVKELPPHACKYCGIHDPATVVMCNNCRKWFCNGRGSTSGSHIINHLVRAKHREVTLHGEGPLGETILECYSCGVRNVFVLGFIPAKADSVVVLLCRQPCAAQNSLKDMNWDQEQWKPLIADRCFLAWLVKQPSEQGQLRARQISAAQINKLEELWKENIEATFQDLEKPGIDSEPAHVLLRYEDGYQYEKTFGPLVRLEAEYDQKLKESATQENIEVRWDVGLNKKTIAYFTLAKTDSDMKLMHGDELRLHYVGELYNPWSEIGHVIKVPDNFGDDVGLELKSSTNAPVKCTSNFTVDFIWKCTSFDRMTRALCKFAIDRNSVSNFIYSRLLGHGRADSNDEVLFRGPQPKLFSAPHLPDLNRSQVYAVKHALQRPLSLIQGPPGTGKTVTSATIVYQLVKLHGGTVLVCAPSNTAVDQLTEKIHRTNLKVVRVCAKSREAIDSPVSFLALHNQIRNMETNSELKKLQQLKDETGELSSADEKRYRNLKRAAENQLLEAADVICCTCVGAGDGRLSRVKFTSILIDESMQSTEPECMVPVVLGAKQLILVGDHCQLGPVVMCKKAARAGLSQSLFERLVVLGIRPFRLEVQYRMHPELSQFPSNFFYEGSLQNGVCAEDRRLKLDFPWPQPERPMFFLVTQGQEEIAGSGTSFLNRTEAANVEKITTRFLKAGIKPEQIGIITPYEGQRAYLVQYMQYQGSLHSRLYQEIEIASVDAFQGREKDIIIMSCVRSNERQGIGFLNDPRRLNVALTRAKFGIIIVGNPKVLAKQQLWNHLLNFYKDRKVLVEGSLNNLKESLIHFQKPKKLVNSMNIGAHFMSTIIADAKEVMVPGSIYDRSGGYGQGRQMVGQSMNGGQYGGSGGGPYGNSPLGYGTPSSNSMVGFGLGNGGNGAAGGNNNFGGAGPSWAAAHLHHDSIGYISNEHGAAALGNMPVPVGMFMNMSNIPPRFYNQHQQAIMAVKQNRAIQQQTGNFSPGNSGPGVTGVGVGRSATPGGNKKTNKLGKSRVTGGGTGGAPLTQGSSVCNAAPYSQHPMPLSLQMTQPSGFALSQQPELSQDFGQISQMDGLLSQDVAFNASGERSLNQFSQPY", "binding": "binds"}, {"binder": "Numb (protein, UniProt P16554 1-556) MGNSSSHTHEPLERGFTRGKFGDVKNGKSASFRFSKKSPKKMDRLRRSFRDSFRRRKDRVPESSKPHQWQADEEAVRSATCSFSVKYLGCVEVFESRGMQVCEEALKVLRQSRRRPVRGLLHVSGDGLRVVDDETKGLIVDQTIEKVSFCAPDRNHERGFSYICRDGTTRRWMCHGFLACKDSGERLSHAVGCAFAVCLERKQRRDKECGVTMTFDTKNSTFTRTGSFRQQTLTERLAMATVGTNERSVDGPGSAMPGPPAATVKPFNPFAIERPHATPNMLERQSSFRLSTIGSQSPFKRQMSLRINDLPSNADRQRAFLTAAAGNPMQTPLRSVSPIAEVSPAKSAGADPLSAAAVAADSVSQLCQELSQGLSLLTQTDALLAAGEDLNFNNNRSINQNIIAAEKQVQHVHSYAPPTAQVTPRVASTTPTYQTLHSQSPSRSEQSIETSTELPNAEQWLGHVVRSTSPAAPKRPTYLANVGRAQTLASGTGAAVGGGGPDDPFDAEWVANVAAAKQLSPDLPIPSTARSPLARHSTNPFISPPKAPAQSFQVQL", "binding": "binds"}, {"binder": "Acinus (Acn) (protein, UniProt Q9VJ12 1-739) MRRRSERKKSSSPAPVPVAVARRSRRSRKVSENEKTEVETPVVAQNNEAECPKVPPASQEINEARASSEERAGSGASPVRRSRGSRTTPRKRTESKGGDKKVDTIPEEEPENGKDVEKDAVEEEKTVAPPAANESESEDRAKTEDQQAQDDESCAEPAVVKDDDVEKEDLKPQQEVPTSTDDDTKQSEPEQEVKVPSPSSKDEEHLKTTSDVLDIQTEEVDERDEEASAPAERRETKKRHKEQIKEQQPAEEEEHKENHKQIDENPEQIHDEPADLSNDKHDPCLNSSATNTTGAPVLQQQRSVRKRKWLTNKKSSDRTPPVLAISTDSLKNIIADVVQPVPLSDVQLESSSEEEGLVTSDRDSERSASPAPPSEASKDRDNKGNTANTCDTTAEASADNEGAGAAPPAAADTVSAQVSLSKATVSTAAPHIVRDPSPARNRASHVLYITNLVRPFTVLQLKGLLARTGKIVEEDGFWIDRIKSKCYVAYSTEDEAIETRHALHGVRWPVSNPKCLNVDFGSRTDMDRAILSTKDEAPRYGQENTRDNQQSGNAWSRLEPSDKKPARPVREWDVGKKEPSDHDKHSNDRRRDSKDRLDSRSRDAERAGQERKRSRDREGRGRDRERERLDRNAHARSRSGSPASKTKKENEPPIRLLDDLFRKTKGTPCIYWLPLTPEAIAEKEAFRQKRIEEHKLRIKEREERQKEREKDRDRQRETRRNRSNERRRSRSRERERRRY", "binding": "binds"}, {"binder": "Staufen (Stau) (protein, UniProt P25159 1-1026) MQHNVHAARPAPHIRAAHHHSHSHAHMHLHPGMEQHLGPSLQQQQQPPPPPQQPPHRDLHARLNHHHLHAQQQQQQQTSSNQAGAVAAAGAAYHHGNINSNSGSNISSNSNQMQKIRQQHQHLSSSNGLLGNQPPGPPPQAFNPLAGNPAALAYNQLPPHPPHHMAAHLGSYAAPPPHYYMSQAKPAKYNHYGSNANSNSGSNNSNSNYAPKAILQNTYRNQKVVVPPVVQEVTPVPEPPVTTNNATTNSTSNSTVIASEPVTQEDTSQKPETRQEPASADDHVSTGNIDATGALSNEDTSSSGRGGKDKTPMCLVNELARYNKITHQYRLTEERGPAHCKTFTVTLMLGDEEYSADGFKIKKAQHLAASKAIEETMYKHPPPKIRRSEEGGPMRTHITPTVELNALAMKLGQRTFYLLDPTQIPPTDSIVPPEFAGGHLLTAPGPGMPQPPPPPAYALRQRLGNGFVPIPSQPMHPHFFHGPGQRPFPPKFPSRFALPPPLGAHVHHGPNGPFPSVPTPPSKITLFVGKQKFVGIGRTLQQAKHDAAARALQVLKTQAISASEEALEDSMDEGDKKSPISQVHEIGIKRNMTVHFKVLREEGPAHMKNFITACIVGSIVTEGEGNGKKVSKKRAAEKMLVELQKLPPLTPTKQTPLKRIKVKTPGKSGAAAREGSVVSGTDGPTQTGKPERRKRLNPPKDKLIDMDDADNPITKLIQLQQTRKEKEPIFELIAKNGNETARRREFVMEVSASGSTARGTGNSKKLAKRNAAQALFELLEAVQVTPTNETQSSEECSTSATMSAVTAPAVEATAEGKVPMVATPVGPMPGILILRQNKKPAKKRDQIVIVKSNVESKEEEANKEVAVAAEENSNNSANSGDSSNSSSGDSQATEAASESALNTSTGSNTSGVSSNSSNVGANTDGNNHAESKNNTESSSNSTSNTQSAGVHMKEQLLYLSKLLDFEVNFSDYPKGNHNEFLTIVTLSTHPPQICHGVGKSSEESQNDAASNALKILSKLGLNNAMK", "binding": "no binding"}, {"binder": "Collapsin Response Mediator Protein (CRMP) (protein, UniProt Q8IPQ2 1-594) MSTSPKPVKKVPIHLQSAQNRVYIKNGEIVNHDKSFKADVYIEDGIIKFVGPSSEITIPGGVRTIDASGLMIIPGGIDPHTHMQLPFGGAVAVDDFYHGTKAAVAGGTTMIIDFVLPNKHESMIEAYDKWRSWADPKVCCDYGLHVGITWWSKSVSEEIGILCKELGVNSFKTFMAYKGLYQLNDSDLLDVFERIRHLNGVAMVHAENGDIIAKNTQRLLAEGINGPEGHELSRPEEVEAEAVHRACVLAHQADCPLYVVHVMSKSAGIELARARHRYRGRYIMGETLAAALGTDATCCQHLGFDAEAAHVLSPPLRPDKTTPEFLMKLLANDDLQLTGSDNCTFNKEHKALGKGDFTKIPNGVNGVEDRMSLVWEKGVHAGLLDPCRFVAVTSTNAAKIFNIYPQKGRIAVGSDADIVIWNPNATRTISKDTHHHACDFNIFEGMTVHGVCEFVLVRGRICAERGNVRVAEGFGRFIPTPVRPPFVYDIIEGKVQSQPEEQHEEKQNGSMAKRFAELDIQIPVQEPISAMLAGNLAMPAEGSLCSTPSVRGRVDGKRDLQESSFSISEELDRSGVRACIKVKNPPGGKSSGFW", "binding": "no binding"}]}]}
